Reference: paper PMC4426952
These are yes or no findings as the source states them, for the method shown. Binding seen in cells or lysates may run through a third protein. Some binding calls cover weakened binding; strength is not graded here.

Protein sequences, listed by entry. Tags and fused reporters are not part of them. Residues count along the entry.
UniProt P28799, residues 18-593: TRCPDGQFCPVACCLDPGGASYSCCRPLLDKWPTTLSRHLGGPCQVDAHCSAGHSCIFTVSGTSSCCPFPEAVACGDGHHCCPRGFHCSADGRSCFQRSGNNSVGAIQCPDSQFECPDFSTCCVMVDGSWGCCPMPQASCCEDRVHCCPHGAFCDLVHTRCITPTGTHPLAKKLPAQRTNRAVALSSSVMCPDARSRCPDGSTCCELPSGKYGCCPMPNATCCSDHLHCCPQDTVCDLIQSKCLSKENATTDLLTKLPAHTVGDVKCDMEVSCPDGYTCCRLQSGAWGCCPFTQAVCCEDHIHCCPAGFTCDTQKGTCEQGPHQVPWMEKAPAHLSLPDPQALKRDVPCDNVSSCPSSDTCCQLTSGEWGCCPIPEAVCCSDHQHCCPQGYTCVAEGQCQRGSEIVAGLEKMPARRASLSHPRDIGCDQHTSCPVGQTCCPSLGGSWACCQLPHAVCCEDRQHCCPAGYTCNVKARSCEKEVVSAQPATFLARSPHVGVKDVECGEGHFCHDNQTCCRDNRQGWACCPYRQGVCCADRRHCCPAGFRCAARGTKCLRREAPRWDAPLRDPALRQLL
UniProt P40763: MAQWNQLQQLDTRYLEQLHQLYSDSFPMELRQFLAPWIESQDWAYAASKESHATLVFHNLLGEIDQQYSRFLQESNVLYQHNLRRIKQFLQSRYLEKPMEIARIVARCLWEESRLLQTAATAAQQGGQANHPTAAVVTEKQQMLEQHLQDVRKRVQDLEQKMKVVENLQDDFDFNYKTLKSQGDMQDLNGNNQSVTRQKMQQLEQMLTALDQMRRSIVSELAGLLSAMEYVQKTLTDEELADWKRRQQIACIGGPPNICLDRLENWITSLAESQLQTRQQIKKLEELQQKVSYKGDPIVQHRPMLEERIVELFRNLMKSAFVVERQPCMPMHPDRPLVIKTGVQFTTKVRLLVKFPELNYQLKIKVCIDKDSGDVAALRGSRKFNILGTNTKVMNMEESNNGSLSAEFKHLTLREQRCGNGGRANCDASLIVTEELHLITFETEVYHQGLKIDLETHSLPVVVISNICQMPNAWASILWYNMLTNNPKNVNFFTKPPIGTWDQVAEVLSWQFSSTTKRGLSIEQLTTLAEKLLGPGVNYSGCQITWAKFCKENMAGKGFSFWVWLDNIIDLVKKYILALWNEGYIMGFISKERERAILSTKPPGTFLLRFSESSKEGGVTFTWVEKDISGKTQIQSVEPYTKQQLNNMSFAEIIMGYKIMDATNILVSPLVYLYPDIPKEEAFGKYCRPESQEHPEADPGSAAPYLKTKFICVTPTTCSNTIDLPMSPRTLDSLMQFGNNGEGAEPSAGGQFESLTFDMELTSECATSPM

Legend:
[1] = target: human GRN, transiently expressed (Human GRN/pcDNA3.1v5HIS-TOPO) (human) (UniProt P28799); assay: co-IP; reciprocal co-immunoprecipitation in TNBC cells transiently expressing GRN
[2] = target: signal transducer and activator of transcription 3 (STAT3) (human (endogenous in MDA-MB-468, SUM159PT, SK-BR-3)) (UniProt P40763); assay: co-IP; endogenous STAT3 precipitated with anti-STAT3 (or non-specific IgG) from SK-BR-3 lysates (no constitutively active PY-STAT3), without cytokine stimulation, immunoblot for GRN
[3] = target: signal transducer and activator of transcription 3 (STAT3) (human (endogenous in MDA-MB-468, SUM159PT, SK-BR-3)) (UniProt P40763); assay: co-IP; endogenous STAT3 precipitated with anti-STAT3 (or non-specific IgG) from MDA-MB-468 and SUM159PT lysates, immunoblot for GRN; lysis buffer 50 mM Tris pH 7.5, 150 mM NaCl, 0.5% NP40, 4 °C

binding [1] | binding [2] | binding [3] | Substance
binds |  |  | signal transducer and activator of transcription 3 (STAT3) (from UniProt P40763 1-770)
 | binds | binds | granulin (GRN) (from UniProt P28799 18-593)
